# Results published in PubChem BioAssay AID487 (Columbia University Molecular Screening Center, 2006).
# The other results are listed elsewhere or left out. Some tests of the compounds listed are not included; inactive here does not mean inactive elsewhere.
# Assay: endothelial E-selectin expression blockers – imaging, HUVEC, immunofluorescence, MLSMR starter and 10KST1 sets, primary screen (AID 487);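 also: 100% = median nuclei count of all wells on the same plate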
# Conditions: HUVEC TNFalpha-induced E-selectin immunofluorescence imaging; measured here: cell number, toxicity; at 2 µM
row,SMILES,nuclei count [%]
1,O=C(OC1CN2CCC1CC2)C(CO)(c1ccccc1)c1ccccc1 (stereo unspecified),115
